Measurements from US6593095.
No constants are given. Whether binding was seen depends on the method and setting. Some results given as binding are weak or reduced against the parent protein; the word gives no strength.

Amino acid sequences for entries named in this document (tags omitted). A change or cut given only in a name is not applied to a line headed by its entry.
UniProt P09167: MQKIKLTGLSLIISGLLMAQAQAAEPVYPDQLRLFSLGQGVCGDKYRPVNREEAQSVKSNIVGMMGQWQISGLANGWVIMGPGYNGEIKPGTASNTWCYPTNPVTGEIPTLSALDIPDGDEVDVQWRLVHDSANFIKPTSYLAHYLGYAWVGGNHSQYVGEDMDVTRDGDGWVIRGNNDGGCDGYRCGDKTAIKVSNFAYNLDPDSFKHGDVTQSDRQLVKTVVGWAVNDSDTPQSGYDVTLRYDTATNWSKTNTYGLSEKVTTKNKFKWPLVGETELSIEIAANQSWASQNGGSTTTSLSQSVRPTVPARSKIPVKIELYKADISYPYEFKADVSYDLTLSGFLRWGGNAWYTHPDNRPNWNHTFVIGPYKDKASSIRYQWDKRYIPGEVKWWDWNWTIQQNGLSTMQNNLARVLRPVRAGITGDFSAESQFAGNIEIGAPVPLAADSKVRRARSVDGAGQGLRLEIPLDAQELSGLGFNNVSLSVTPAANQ

Tests used:
[1] = target: T1, Thy-1, native, of mouse (brain homogenate; AKR1 lymphocytes) (mouse) (UniProt P01831); assay: sandwich Western blotting of mouse brain homogenate
T1 sequence: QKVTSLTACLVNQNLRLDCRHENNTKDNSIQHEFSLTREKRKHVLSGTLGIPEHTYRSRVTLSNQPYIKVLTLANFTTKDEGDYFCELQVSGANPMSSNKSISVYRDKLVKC

[2] = target: T2, human Thy-1 expressed in CHO-K1 cells (plasmid pRc-Thy-1) (human) (UniProt P04216); assay: sandwich Western blotting of CHO cell samples
T2 sequence: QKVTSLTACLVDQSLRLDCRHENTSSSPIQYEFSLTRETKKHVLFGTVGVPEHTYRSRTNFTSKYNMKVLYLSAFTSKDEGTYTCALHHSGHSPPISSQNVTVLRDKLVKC

[3] = target: purified Thy-1 (from deoxycholate extracts of pig brain) (pig); assay: summary of ELISA and sandwich Western blotting
[4] = target: purified Thy-1 (from deoxycholate extracts of pig brain) (pig); assay: ELISA-based assay, purified Thy-1
[5] = target: T1, Thy-1, native, of mouse (brain homogenate; AKR1 lymphocytes) (mouse); assay: sandwich Western blotting of AKR1 cells

Measured: binding

proaerolysin (precursor form of aerolysin of Aeromonas hydrophila) (from UniProt P09167 24-481)
binds: [1] | [2] | [3] | [4] | [5]
